Experimental data reported in article PMC9849758, “Chemically diverse activity-based probes with unexpected inhibitory mechanisms targeting trypsin-like serine proteases” (Frontiers in Chemistry, 2023).

Sequences of proteins named here, by UniProt entry; tags and fusion partners are left off. Residues count along the entry.
UniProt P20231, 31-275 limits assumed: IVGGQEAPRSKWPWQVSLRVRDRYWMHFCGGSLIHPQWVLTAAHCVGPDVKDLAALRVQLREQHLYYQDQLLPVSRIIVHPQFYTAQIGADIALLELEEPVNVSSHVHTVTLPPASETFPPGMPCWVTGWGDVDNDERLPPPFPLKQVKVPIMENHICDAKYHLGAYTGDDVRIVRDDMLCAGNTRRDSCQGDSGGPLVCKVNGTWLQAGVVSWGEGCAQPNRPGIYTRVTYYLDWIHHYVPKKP
UniProt P35030, whole entry: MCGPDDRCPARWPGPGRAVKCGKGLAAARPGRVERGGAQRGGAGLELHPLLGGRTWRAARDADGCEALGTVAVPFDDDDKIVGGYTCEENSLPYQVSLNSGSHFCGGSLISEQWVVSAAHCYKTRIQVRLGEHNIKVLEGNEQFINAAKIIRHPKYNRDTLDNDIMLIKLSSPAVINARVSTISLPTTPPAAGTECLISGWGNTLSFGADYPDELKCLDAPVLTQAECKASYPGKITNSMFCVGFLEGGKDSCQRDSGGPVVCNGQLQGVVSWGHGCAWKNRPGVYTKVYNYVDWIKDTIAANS
UniProt P08311, 21-255 limits assumed: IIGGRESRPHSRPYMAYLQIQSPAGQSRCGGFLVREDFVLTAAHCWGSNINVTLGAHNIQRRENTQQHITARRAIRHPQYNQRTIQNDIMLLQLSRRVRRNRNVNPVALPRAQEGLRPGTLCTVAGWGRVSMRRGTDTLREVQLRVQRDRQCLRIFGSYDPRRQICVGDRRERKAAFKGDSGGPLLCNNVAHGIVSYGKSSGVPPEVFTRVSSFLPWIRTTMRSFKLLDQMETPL

Legend:
[1] = biological target: TLCK-treated pancreatic bovine chymotrypsin (Bos taurus, UniProt P00766); experiment: IC50 determination, spectrophotometric protease assay; format: biochemical; details: read-out: ChTryp IC50; desthiobiotin probes; 15 min preincubation at 37°C; mean ± SD; tested form: TFA
Method: (§1) The IC50 value is defined as the concentration of inhibitor required to reduce the enzyme activity to 50% after a 15 min preincubation with the enzyme at 37°C before the addition of the substrate. The IC50 values were determined using a spectrophotometric assay. All the experiments were conducted in duplicate. The readout consisted of evaluating the protease-mediated release of the chromophore para-nitroaniline (pNA) or fluorophore 7-amino-4-methyl coumarin (AMC) moieties from the respective substrates. Enzymatic activity was measured for 30 min at 37°C. All compounds were initially screened at three concentrations (10, 1, and .1 μM) to estimate the range of the IC50 value. Those which were able to reduce protease activity by at least 50% at a concentration of 10 μM were submitted to an exact IC50 determination. […] A third independent experiment was performed when the standard deviation of the two independent experiments was higher than […]. IC50 values were obtained by fitting the data with the four-parameter logistics equation using GraphPad Prism 9.
(§2) The conditions for each protease are described as follows, the concentration of substrate used was at the corresponding Km.
(§3) Trypsin-3 (recombinant trypsin-3, R&D) and fluorogenic substrate tosyl-Gly-Pro-Arg-AMC (Km = 22.5 μM) were used in Tris buffer (100 mM Tris, 1 mM CaCl2) at pH 8.0 (25°C). Tryptase (recombinant tryptase β-2, EnzoLife Sciences) and fluorogenic substrate Boc-Gln-Ala-Arg-AMC (Km = 250 μM) were used in Tris buffer (50 mM Tris, 120 mM NaCl, .1 mg/ml BSA, .1 mg/ml heparin) at pH 8.0 (25°C). Thrombin (recombinant thrombin, R&D) and fluorogenic substrate Boc-Val-Pro-Arg-AMC (Km = 15 μM) were used in TRIS buffer (50 mM Tris HCl, 50 mM Tris base, 10 mM CaCl2, 150 mM NaCl) at pH 8.3 (25°C). uPA (recombinant urokinase plasminogen activator, HYPHEN BioMed) and chromogenic substrate pyro-Glu-Gly-Arg-pNA (Km = 80 μM) were used in HEPES buffer (50 mM HEPES) at pH 8.1 (25°C). Cathepsin G (cathepsin G human neutrophil, Sigma-Aldrich) and fluorogenic substrate Suc-Ala-Ala-Pro-Phe-AMC (Km = 130 μM) were used in Tris buffer (50 mM Tris, 120 mM NaCl) at pH 8.0 (25°C). TLCK-treated pancreatic bovine chymotrypsin (Sigma-Aldrich) and fluorescent substrate Suc-Ala-Ala-Pro-Phe-AMC (Km = 58 μM) were used in Tris buffer (50 mM Tris, 20 mM CaCl2) at pH 8.3 (25°C). Neutrophil Elastase (recombinant neutrophil elastase, Enzo LifeSciences) and fluorogenic substrate Suc-Ala-Ala-Pro-Val-AMC (Km = 500 μM) were used in Tris buffer (50 mM Tris, 120 mM NaCl) at pH 8.0 (25°C).

[2] = biological target: β-tryptase (recombinant tryptase β-2) (Homo sapiens, UniProt P20231); experiment: as above; format: biochemical; details: read-out: β-tryptase IC50; desthiobiotin probes; 15 min preincubation at 37°C; mean ± SD; tested form: TFA
Method: as §1, §2, §3

[3] = biological target: Thrombin (recombinant thrombin) (Homo sapiens, UniProt P00734); experiment: as above; format: biochemical; details: read-out: Thrombin IC50; desthiobiotin probes; 15 min preincubation at 37°C; mean ± SD; tested form: TFA
Method: as §1, §2, §3

[4] = biological target: Trypsin-3 (recombinant trypsin-3) (Homo sapiens, UniProt P35030); experiment: as above; format: biochemical; details: read-out: Trypsin-3 IC50; desthiobiotin probes; 15 min preincubation at 37°C; mean ± SD; tested form: TFA
Method: as §1, §2, §3

[5] = biological target: uPA (recombinant urokinase plasminogen activator) (Homo sapiens, UniProt P00749); experiment: as above; format: biochemical; details: read-out: uPA IC50; desthiobiotin probes; 15 min preincubation at 37°C; mean ± SD; tested form: TFA
Method: as §1, §2, §3

[6] = biological target: Cathepsin G (cathepsin G human neutrophil) (Homo sapiens, UniProt P08311); experiment: as above; format: biochemical; details: read-out: CatG IC50; desthiobiotin probes; 15 min preincubation at 37°C; mean ± SD; tested form: TFA
Method: as §1, §2, §3

[7] = biological target: β-tryptase (Homo sapiens, UniProt P20231); experiment: Labeling and detection of recombinant proteases (SDS-PAGE blot, NeutrAvidin-HRP); format: binding; details: 1 µM ABP, 100 ng protease, 30 min 37°C, denaturing SDS-PAGE blot; tested form: TFA
Method: Recombinant proteases (100 ng) were labeled with 1 µM ABP in reaction buffer in a final volume of 40 µL for 30 min at 37°C. After the addition of 4X Laemmli buffer (Bio-Rad, GmbH) supplemented with Bond-Breaker Tris (2-CarboxyEthyl)Phosphine (TCEP) Solution (Thermo Scientific, United States), the samples were heated at 95°C for 5 min and loaded into 4%–20% Mini-Protean TGX precast gels (Bio-Rad, GmbH). After electrophoresis, the proteins were blotted onto nitrocellulose membranes using the Trans-Blot Transfer Turbo System (Bio-Rad). Membranes were incubated with NeutrAvidin-HRP (1:50,000), and bands were visualized with ECL Select Western Blot Detection Reagent (GE Healthcare Life Sciences) by chemiluminescence (Chemidoc XRS; Bio-Rad). The molecular weight of each band was determined with the Image Lab Software v5 (Bio-Rad).
To further characterize the newly synthesized compounds and their potential to be used as ABPs, nine desthiobiotin probes were used for the labeling and detection of recombinant proteases. The arginine (45b–46b) and the proline-lysine (58b) desthiobiotin probes were used as reference compounds. Whereas the benzyl guanidine (50b, 52b, 54b) and phenyl guanidine probes (55b–57b) were used to determine whether the mechanism of inhibition (reversible or irreversible) is an obstacle to visualize the proteases. […]

**Q.** Which IC50 [1] does the source give for `C[C@@H]1NC(=O)N[C@@H]1CCCCCC(=O)NCCOCCOCCOCCn1cc(CCCC(=O)N2CCCC2C(=O)NC(CCCCN)P(=O)(Oc2ccccc2)Oc2ccccc2)nn1` (stereo partly shown) here?
**A.** > 10000 nM

**Q.** And the IC50 [2]?
**A.** 6410 nM

**Q.** And the IC50 [3]?
**A.** 160 nM

**Q.** What about the IC50 [4] of the same compound?
**A.** 160 nM

**Q.** And the IC50 [5]?
**A.** 6510 nM

**Q.** And the IC50 [6]?
**A.** 2900 nM

**Q.** What about the “labeling of recombinant β-tryptase” value [7] of the same compound?
**A.** not good ABP candidates

Structures were worked out from names or drawings and are uncertain.
